# Experiment: soluble on expression in E. coli; label from the status in PepcDB or PDB records
row,Sequence,soluble on expression in E. coli
1,MKQSVSAEQIELKSSLPGSKKVYVDGPREGMKVPMREIEQSDTNGVPNPPIRVYDTSGPYTDPAYKVELEKGIPTPRHSWILERGDVEAYEGREVKPEDDGVKVASKHTPVFPQMDRKPLRAKQGANVTQMHYARNGIIKSEMEYVAIREGVDPEFVRKEIAEGRAILPANINHPEAEPMIIGRNFHVKVNANIGNSAVSSSIAEEVEKMTWATRWGADTIMDLSTGKNIHTTREWIIRNAPVPVGTVPIYQALEKVNGIAEDLTWEVYRDTLIEQAEQGVDYFTIHAGVLLRYIPITAKRTTGIVSRGGSIMAQWCLFHHKENFLYTHFEEICEIMKQYDVSFSLGDGLRPGSIADANDEAQFSELETLGELTKIAWKHDVQVMIEGPGHVPMHLIKENMEKELDICQGAPFYTLGPLTTDIAPGYDHITSAIGAAMIGWFGTAMLCYVTPKEHLGLPNKDDVREGVITYKIAAHAADLAKGHKTAHQRDDALSKARFEFRWRDQFNLSLDPERAMEYHDETLPAEGAKTAHFCSMCGPKFCSMRISHDIREYAKENDLETTEAIEKGMKEKAKEFKETGSHLYQ,not soluble
2,MLSKSTRLLRRCFQTDVDVIVIGGGHAGCESAAAAARCGSNTVLVTQNKNTIGEMSCNPSFGGIGKGHLIREVDALDGLCARICDKSAITYQALNRAQGPAVLGLRAQIDRKLYKTQMQNEINSTKRLEILEGEVAELLVENGKIVGIRMMNETVIRTKCVVITTGTFLRAQIYQGMKTWPAGRIGEKSSDRLSESFLKHGFELGRLRTGTPPRLMKDSINFSKFERVAPDRTPIPFSFLTKNVWISYEDQLPTYLGHTNDEVCRIGNENMHENYQVASETTSPRYCPSLESKLLRFPKLHHRLFLEHEGLDSPHIYPQGMSLTFKPEVQTQLLRAIPGLENVEIFQPGYGVQYDFVNPKQLKRTLETRKVEGMFLAGQINGTTGYEEAAAQGVVAGINASARAQNEPGMEVSRTEGYIGVLIDDLTSLGTNEPYRMLTSRAEFRLYLRPDNADIRLTELGRRHNAISDNRWAIFTETKGELNNLTQRTEEMKMSMVKWKRIIPKLAATSRNDGKVLSAFDLIHRYDLDKSDLELCLKDKNIGEDILERLKIEGRYQMEHERMKAKKQEIDRESATAIPDNTDFSTMRGMSLECIEKLERARPRNLAAATRISGITPEAIVVLMRHLKNPAPVRSSAV,not soluble
3,MPKYRSATTTHGRNMAGARALWRATGVKEEDFGKPIIAVVNSFTQFVPGHVHLKDLGQLVAREIEAAGGIAKEFNTIAVDDGIAMGHGGMLYSLPSRELIADSVEYMVNAHCADAMVCISNCDKITPGMLMAAMRLNIPAIFVSGGPMEAGKTKLSDQIIKLDLVDAMMQGADPKVSDAQSEQIERSACPTCGSCSGMFTANSMNCLTEALGLSQPGNGSLLATHADRKQLFLTAGQRIVELTKRYYEQDDASVLPRNIANKAAFENAIALDIAMGGSTNTVLHLLAAAQEGEVEFDMTDIDRMSRQVPHLCKVAPSTQKYHMEDVHRAGGVMGILGELQRAGLLKDQTRTVLGISLQEQLAQYDVKQTQDPAVHTMFRAGPAGIRTTQAFSQDCRWDTLDDDRQEGCIRDKAHAFSQDGGLAVLKGNLAIDGCIVKTAGVDESILKFRGPAVVYESQEDAVNGILGGQVKAGDVVVIRYEGPKGGPGMQEMLYPTTYLKSMGLGKQCALLTDGRFSGGTSGLSIGHASPEAANGGTIGLVRSGDSIAIDIPNRSITLEVSESELAARRAEQDKLGWKPVDRQRTVSLALKAYASMATSADKGAVRDKSKLEG,not soluble
4,MPSVQIGPPPASQSAIEAVRTVIITDEDLVKEKVCAICKEEFEVGEEGKELKCLHLYHSSCIVSWLNIHNTCPICRFEVNLGVSESNVDEGGSYNIDNDRSNRFRTRVCSLWPLRMMIDWVHNLIGKIPPPDIAFMAFLLCLYGF,soluble
5,MRGSHHHHHHGSMACPLEKALDVMVSTFHKYSGKEGDKFKLNKSELKELLTRELPSFLGKRTDEAAFQKLMSNLDSNRDNEVDFQEYCVFLSCIAMMCNEFFEGFPDKQPRKK,soluble
6,MSATKLTRREQRARAQHFIDTLEGTAFPNSKRIYITGTHPGVRVPMREIQLSPTLIGGSKEQPQYEENEAIPVYDTSGPYGDPQIAINVQQGLAKLRQPWIDARGDTEELTVRSSDYTKARLADDGLDELRFSGVLTPKRAKAGRRVTQLHYARQGIITPEMEFIAIRENMGRERIRSEVLRHQHPGMSFGAHLPENITAEFVRDEVAAGRAIIPANINHPESEPMIIGRNFLVKVNANIGNSAVTSSIEEEVEKLVWSTRWGADTVMDLSTGRYIHETREWILRNSPVPIGTVPIYQALEKVNGIAEDLTWEAFRDTLLEQAEQGVDYFTIHAGVLLRYVPMTAKRLTGIVSRGGSIMAKWCLSHHQENFLYQHFREICEICAAYDVSLSLGDGLRPGSIQDANDEAQFAELHTLGELTKIAWEYDVQVMIEGPGHVPMQMIRRNMTEELEHCHEAPFYTLGPLTTDIAPGYDHFTSGIGAAMIGWFGCAMLCYVTPKEHLGLPNKEDVKQGLITYKIAAHAADLAKGHPGAQIRDNAMSKARFEFRWEDQFNLALDPFTARAYHDETLPQESGKVAHFCSMCGPKFCSMKISQEVRDYAATQTIEMGMADMSENFRARGGEIYLRKEEA,soluble
7,MSLEAKQREGRARLVLVTGAARGIGLACAHRFARAGDRVVMADRDLAACTFEAERLGSRHVALQLDVSDEAAVEHAMDGLLQQFGAFDVVINNAGVVDRFARPLLDVPPEDIDRLIGVNLEGPYLVVRAALRTILAGRRGAAIVNVASGAALRALPGRAAYSMTKAGVIGMTRAMAIELGPQGIAVNAVLPGYIDTEILLALEREGKFDRAAAAGAIPMGRLGRTDEIAEAVHYLARGGYHCGSLLSVDGGVDAYGGSGKASTAVMPHRPVRAGDVACVTGGASGIGAVVADRLAGLGWLVAIIDSREIADGPHPAWQADIASEASVESAMAGIAGQLGPVTLLVNNAGIVEPMAKSADQALADFRRTIDVNVKGTIHASRAAARQMIGAGGGAIVNLSSITASLGLPGRNAYCASKSAVTMLTRSLACEWAAHGIRVNAVAPGYILTPAVQALLASGERDMNSVVRRIPVARLGQPDEVADAIAFLASDAASYVTGATLQVDGGYLASGHEGHHHHHH,soluble
8,MSLKIQFDFPASFWTEALPIGNGNLGAMVFGKVEKERIALNEDTLWSGYPKDWNNPKAKEVLPKVRELIAQEKYEEADQLSRDMMGPYTQSYLPFGDLNIFMDHGQVVAPHYHRELDLSTGIVTVTYTIGGVQYTRELFVTYPDRAIVVRLTASKEGFLSFRAKLDSLLRHVSSVGAEHYTISGTAPEHVSPSYYDEENPVRYGHPDMSQGMTFHGRLAAVNEGGSLKVDADGLHVMGATCATLYFSASTSFDPSTGASCLERDPSLRTIETIKAICKRGYKEIVNRHLEDYAKLFNRVSLHLGESIAPADMSTDQRIKEYGSRDLGLVELLFQYGRYLMIASSRPGTQPANLQGIWNEETRAPWSSNYTLNINAEMNYWPAETCNLAELHKPLIHFIERLAANGKKTAEINYGARGWVAHHNADLWGQTAPVGDFGHGDPVWAFWPMGGVWLTQHLWEHYTFGEDEAYLRDTAYPIMKEAALFCLDWLIENEAGYLVTSPSTSPEQRFRIGEKGYAVSSATTMDLSLIAECFDNCIQAAKRLSIDEDFVKALSDAKQRLLPLQIGKRGQLQEWSNDFEDEDVHHRHVSHLVGIYPGRLITEQSAPNLFEAAKTSLEIRGDEGTGWSLGWKISLWARFKDGNRCERLLSNMLTLIKEDESMQHRGGVYANLFGAHPPFQIDGNFSATAGIAEMLLQSHQGYLEFLPALPDSWKDGYVKGLRGRGGYEVDLAWTNGALVKVEIVSTKTQTCEVLTRISMRITESGEEVEGDVLDSGRMSFQVEKGKRYVLNRTTDGEGHHHHHH,soluble
9,MSLSNLPPAVGRSNAMSERHIASAPYPWPWNGQLHAHNTALIVIDMQTDFCGVGGYVDSMGYDLSLTRAPIEPIKALLAVMRPLGFTIIHTREGHRPDLSDLPANKRWRSQRIGAGIGDPGPCGKILVRGEPGWEIIEELAPLPGEIIIDKPGKGSFCATDLELILRTRGINNLILTGITTDVCVHTTMREANDRGFECVLLEDCCGATDPANHAAALSMVKMQGGVFGAVGHSSMFRDLFGAWTCTPQALRRLVPASISVRFAHSTRCRSRSAPAPSTPCSARTAPAKARWSKASSATARCNRAVFWSTTASMRSEGHHHHHH,not soluble
10,MSRPSSRAIYLHRKEYSQNLTSEPTLLQHRVEHLMTCKQGSQRVQGPEDALQKLFEMDAQGRVWSQDLILQVRDGWLQLLDIETKEELDSYRLDSIQAMNVALNTCSYNSILSITVQEPGLPGTSTLLFQCQEVGAERLKTSLQKALEEELEQSRPRLGGLQPGQDRWRGPAMERPLPMEQARYLEPGIPPEQPHQRTLEHSLPPSPRPLPRHTSAREPSAFTLPPPRRSSSPEDPERDEEVLNHVLRDIELFMGKLEKAQAKTSRKKKFGKKNKDQGGLTQAQYIDCFQKIKYSFNLLGRLATWLKETSAPELVHILFKSLNFILARCPEAGLAAQVISPLLTPKAINLLQSCLSPPESNLWMGLGPAWTTSRADWTGDEPLPYQPTFSDDWQLPEPSSQAPLGYQDPVSLRRGSHRLGSTSHFPQEKTHNHDPQPGDPNSRPSSPKPAQPALKMQVLYEFEARNPRELTVVQGEKLEVLDHSKRWWLVKNEAGRSGYIPSNILEPLQPGTPGTQGQSPSRVPMLRLSSRPEEVTDWLQAENFSTATVRTLGSLTGSQLLRIRPGELQMLCPQEAPRILSRLEAVRRMLGISP,soluble
11,MSSISNNPDFSSIDPAVLMSLLMKSSGSLPTPPDTHSDGSESPDSTASDSSDKKRRRKPESKDIVRVAEEAEAAAATCSSIPSSSDTKENETEEDQNMTCDTTTNNAQKPTEQTATSADVVTSSVPSGLEGVPSFLFSQFMAPSFQKQLEIFTSGNMMSATHSDTSPSDVDSVLDGGVVTAEETSSSKSPMMTSSDTPKTPLTASSPPHSSGSESRVMSPITHTNISDELSISTTPTVAFTPNGSIPSPGTGYSWSIRREGKLACPTPGCDGSGHQTGLYTHHRSLSGCPRRPDKTVIQMLALRQDTVLRCTTAGCSGKGHVNGNRTSHRSLSGCPIAHQEKLARKGIKTTPQRTKTPIKGISISDECPLDLTLSGLPAGLSAQQLLAAAQAGLIPSSQMMDALFQQFSQTQPLATLEEESKKENEMEVDVETTSDDIPTLIKEEEEVKCESPVPSVIPEIQSTPSRPVAAPVAPGSAEKSSPTSQMLLQMPGFSEALLKMTAPQVPFPQYSPQAALFGNQSALLAQIMLTQLQMQQGF,not soluble
12,PAAEEQPAAAPAQAAAPAAEQKPAAAAPAPAKADTPAPVGAPSRDGAKVHAGPAVRMLAREFGVELSEVKASGPKGRILKEDVQVFVKEQLQRAKSGGAGATGGAG,not soluble
13,SARVGSQNGVQMLSPSEIPQRDWFPSDFTFGAATSAYQIEGAWNEDGKGESNWDHFCHNHPERILDGSNSDIGANSYHMYKTDVRLLKEMGMDAYRFSISWPRILPKGTKEGGINPDGIKYYRNLINLLLENGIEPYVTIFHWDVPQALEEKYGGFLDKSHKSIVEDYTYFAKVCFDNFGDKVKNWLTFNDPQTFTSVSYGTGVFAPGRCSPGLDCAYPTGNSLVEPYTAGHNILLAHAEAVDLYNKHYKRDDTRIGLAFDVMGRVPYGTSFLDKQAEERSWDINLGWFLEPVVRGDYPFSMRSLARERLPFFKDEQKEKLAGSYNMLGLNYYTSRFSKNIDISPNYSPVLNTDDAYASQEVNGPDGKPIGPPMGNPWIYMYPEGLKDLLMIMKNKYGNPPIYITENGIGDVDTKETPLPMEAALNDYKRLDYIQRHIATLKESIDLGSNVQGYFAWSLLDNFEWFAGFTERYGIVYVDRNNNCTRYMKESAKWLKEFNTAKKPSKKILTPA,soluble
14,SLHPYRMEGYIIPPQQIEEMFETEIYRPPMEYQYIIDDSQNDHSWDYNTHHIHPVDFENLPESHFTELQSVQSLHAASVHRFPDVESSHFMDPGLGSHHIPLTNPQMTYLPRTSVCYPHNVQPSPLQRSSDEEDPSSRSPPLEVSDEECMRDHISSTTGGEHGNKKKIRLYQFLLDLLRNGGMKDSIWWVDREKGTFQFSSKHKEVLANRWGIQKGNRKR,soluble

# Reference: the DeepSol protein solubility set
